Reference: PubChem BioAssay AID488835 (Broad Institute, 2010)
In all, about 1,400 compounds went through this assay and about 140 (10%) were called active.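 How the source made its calls: active means Half-maximal inhibitory dose from the fit at or below ten times the top valid tested dose; inconclusive means Invalid fit, or flat curve showing 30 to 70% inhibition; inactive means the rest.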 This is a selection; strong and weak results do not stand in their true shares. Potency and affinity values are given separately.

Chains of the proteins cited; added tags and fusions are not shown. Residues count along the entry.
UniProt Q9H3R0, 1-420 limits assumed: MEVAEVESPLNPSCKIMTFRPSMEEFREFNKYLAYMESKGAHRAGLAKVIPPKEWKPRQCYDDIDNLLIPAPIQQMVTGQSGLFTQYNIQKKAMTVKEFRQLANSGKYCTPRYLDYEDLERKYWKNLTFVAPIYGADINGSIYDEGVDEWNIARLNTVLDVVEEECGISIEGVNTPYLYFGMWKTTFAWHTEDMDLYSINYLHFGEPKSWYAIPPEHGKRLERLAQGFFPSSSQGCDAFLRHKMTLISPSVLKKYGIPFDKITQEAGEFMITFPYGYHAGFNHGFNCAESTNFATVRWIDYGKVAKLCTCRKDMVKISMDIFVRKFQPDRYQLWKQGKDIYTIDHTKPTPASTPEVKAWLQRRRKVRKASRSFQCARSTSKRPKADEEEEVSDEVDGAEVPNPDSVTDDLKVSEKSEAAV

target: Lysine-specific demethylase 4C (Homo sapiens) (UniProt Q9H3R0); assay: inhibition of JMJD2C H3K9me3 demethylation – biochemical, DELFIA europium, cherry-picked samples, dose response (AID 488835); conditions: GST-JMJD2C(1-420); at 6 µM (top of the series) unless noted;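 further: signal is the H3K9me2 demethylation product detected by a dimethyl-specific antibody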

Activity change, negative = inhibition, inactive:
Cc1cc(-c2n[nH]c(=S)o2)c(C)n1-c1ccccc1 -1.23%
Cc1ccc(/C=N/NC(=O)c2ccc(C(=O)N/N=C/c3ccc(C)s3)o2)s1 13.9%
O=C(NCCCn1ccnc1)c1cc2c(ccc3ccccc32)o1 9.56%
CCCOC(=O)c1ccc(-c2ccc(C=O)o2)cc1 5.23%
COC(=O)c1cc(OC)c(OC)cc1NC(=O)Cn1nnc(-c2ccccc2Cl)n1 4.22%
C[C@H](CO)N1C[C@H](C)[C@H](CN(C)S(=O)(=O)c2ccccc2)Oc2c(NS(C)(=O)=O)cccc2C1=O 1.69%
Cc1ccccc1NS(=O)(=O)c1ccc(C(=O)NCC(c2ccco2)N(C)C)cc1 (centres undefined) -0.352%
CCCc1nn2c(=O)cc(CSCC(=O)Nc3ccccc3)nc2s1 -4.93%
Cc1ccc([N+](=O)[O-])cc1N=C(c1cccc([N+](=O)[O-])c1)N1CCOCC1 4.23%
O=C1c2ccccc2C(=O)N1CCC(c1ccccc1)c1ccco1 (centres undefined) -0.258%
O=[N+]([O-])c1cc(Cl)ccc1Nc1ccccc1 2.42%
CCc1ccc(NC(=O)CSc2nnc(CNC(=O)c3c(F)cccc3Cl)o2)cc1 0.0635%
N#CC1(NC(=O)Cn2ncc(Cl)c(Cl)c2=O)CCCCC1 0.641%
Cc1cc(C)c(OCC(=O)Nc2ccc(NC(=O)c3ccco3)cc2)c([N+](=O)[O-])c1 -0.32%
CCOC(=O)CCCCCC(=O)Nc1ccc2c(c1)CC(=O)N([C@H](C)CO)C[C@@H](C)[C@H](CN(C)Cc1ccc3c(c1)OCO3)O2 0.382%
C[C@@H]1CN([C@@H](C)CO)C(=O)c2cc(NC(=O)Nc3ccc4c(c3)OCO4)ccc2O[C@H]1CN(C)S(=O)(=O)c1ccc(F)cc1 -2.71%
COc1ccc2c(c1)OC[C@H]1[C@H]2N2C(=O)CNC(=O)[C@@]2(C)[C@H]1c1ccccc1 -2.38%
C[C@H](N)c1nnc(SCC(=O)N(C)C)o1 3.49%
OCc1ccc(OCCCOc2cccc3cccnc23)cc1 -4.13%
Nc1nn2c(-c3ccccc3)cc(=O)[nH]c2c1N=Nc1ccc(O)cc1 2.37%
O=C(/C=C\c1ccc2c(c1)OCO2)NC1(C(=O)Nc2ccc3c(c2)OCO3)CCCCC1 4.16%
CCC(=O)Nc1ccc(NC(=O)CSc2nnnn2C(C)C)cc1 11.2%
O=C(CSc1nc(-c2ccccc2)cc(=O)[nH]1)NCc1ccc2c(c1)OCO2 8.8%
O=C(NCC(c1ccco1)N1CCCCC1)c1ccc(OCc2ccccc2)cc1 (centres undefined) -9.65%
CCOC(=O)N1CCN(c2ccc(F)cc2[N+](=O)[O-])CC1 2.68%
O=C(Oc1cccc2cccnc12)c1cccc(N2C(=O)C3C4CCC(C4)C3C2=O)c1 (centres undefined) 2.1%
CCc1ccc(-c2nc(CN3CCC(C(=O)NCc4ccc(F)cc4)CC3)c(C)o2)cc1 2.76%
Cc1ccc(S(=O)(=O)N2[C@@H](c3ccc(Br)cc3)C(C(=O)O)=C[C@H]2CC2CCCC2)cc1 -1.88%
Cc1cccc(-c2noc(CCC(=O)NC3CCCC3)n2)c1 -1.28%
CCOC(=O)c1ccc(N2C(=O)C(C)=C(C)C2=O)cc1 11.2%
COc1ccc(CCN=C(NS(=O)(=O)c2ccc(Cl)cc2)c2ccccc2)cc1 7.32%
CCOC(=O)C1=C(C)NC(=O)NC1c1ccc(Br)s1 (centres undefined) -6.07%
CCC(=O)Nc1ccccc1Nc1cc(C#N)c(C#N)cc1[N+](=O)[O-] 2.52%
COc1ccc(NC(=O)CCc2ccccc2)cc1NC(=O)c1ccco1 2.99%
Nn1cc(-c2ccccc2)nc1SCC(=O)N1CCN(S(=O)(=O)c2ccc3ccccc3c2)CC1 5.59%
CCOc1ccc(NC(=O)CN(C)CC(=O)Nc2cc(Cl)ccc2C#N)cc1OCC 1.02%
O=C(Nc1nncs1)c1ccc2c(c1)OCO2 8.07%
N=c1n(CC(=O)c2cccc([N+](=O)[O-])c2)c2ccccc2n1Cc1ccccc1 -9.38%
O=C(C1CCN(S(=O)(=O)c2ccc3ccccc3c2)CC1)N1CCN(c2ncccn2)CC1 -5.05%
COc1ccc2c(C(=O)NCCCCO)c(-c3ccc(S(C)(=O)=O)cc3)sc2c1 3.4%
CC(=O)Nc1sc2c(c1CN1CCN(C)CC1)CCCC2 6.9%
COCCCNC(=O)CC1C[C@H](C(=O)N2CCOCC2)[C@@]2(C)c3[nH]c4ccccc4c3CCN2C1=O (some centres undefined) 1.15%
COCCn1c(SCC(=O)Nc2cc(C(C)(C)C)nn2-c2ccccc2)nc2ccccc2c1=O 4.81%
CCN(C[C@H]1N[C@@](Cc2ccccc2)(C(=O)OC)[C@H]2C(=O)N(C)C(=O)[C@@H]12)S(=O)(=O)c1ccccc1 6.98%
O=c1nc(SCc2cccc(C(F)(F)F)c2)nc2ccccn12 -5.39%
Cc1nnc(SCc2nc3ccccc3[nH]2)s1 8.43%
CC1Oc2ccccc2N(Cc2ccccc2Cl)C1=O (centres undefined) -6.49%
CC1C(=O)N(Cc2ccc([N+](=O)[O-])cc2)c2ccccc2N1C(=O)C1CC1 (centres undefined) 2.71%
COC(=O)C(Cc1ccccc1)NC(=O)COc1ccc(C(C)(C)C)cc1 (centres undefined) -0.353%
Cc1ccc(NC(=O)COC(=O)CCc2c[nH]c(=O)[nH]2)cc1 9.31%
O=c1c2ccccc2nc2c3ccccc3c(NCc3ccco3)nn12 3.15% [at 1.6 µM]
CN(c1ccc(OCC(=O)N2CCCCC2)cc1)S(=O)(=O)c1cccs1 0.477%
C[C@@]12C(=O)Nc3ccc(Cl)cc3C(=O)N1[C@H]1c3cc(Br)ccc3OC[C@@H]1[C@@H]2c1ccccc1 7.95%
O=C(C/C=N/OCc1ccc(Cl)cc1Cl)c1ccccc1 3.68%

Random excerpt: 3 compounds from above, in no set order.
Activity change, negative = inhibition, inactive:
Cc1ccc(S(=O)(=O)N2[C@@H](c3ccc(Br)cc3)C(C(=O)O)=C[C@H]2CC2CCCC2)cc1 -1.88%
CCOC(=O)c1ccc(N2C(=O)C(C)=C(C)C2=O)cc1 11.2%
O=C(/C=C\c1ccc2c(c1)OCO2)NC1(C(=O)Nc2ccc3c(c2)OCO3)CCCCC1 4.16%
